The source of these data is paper PMC10352565.

Protein sequences, listed by entry. Tags and fused reporters are not part of them.
UniProt Q5SU73: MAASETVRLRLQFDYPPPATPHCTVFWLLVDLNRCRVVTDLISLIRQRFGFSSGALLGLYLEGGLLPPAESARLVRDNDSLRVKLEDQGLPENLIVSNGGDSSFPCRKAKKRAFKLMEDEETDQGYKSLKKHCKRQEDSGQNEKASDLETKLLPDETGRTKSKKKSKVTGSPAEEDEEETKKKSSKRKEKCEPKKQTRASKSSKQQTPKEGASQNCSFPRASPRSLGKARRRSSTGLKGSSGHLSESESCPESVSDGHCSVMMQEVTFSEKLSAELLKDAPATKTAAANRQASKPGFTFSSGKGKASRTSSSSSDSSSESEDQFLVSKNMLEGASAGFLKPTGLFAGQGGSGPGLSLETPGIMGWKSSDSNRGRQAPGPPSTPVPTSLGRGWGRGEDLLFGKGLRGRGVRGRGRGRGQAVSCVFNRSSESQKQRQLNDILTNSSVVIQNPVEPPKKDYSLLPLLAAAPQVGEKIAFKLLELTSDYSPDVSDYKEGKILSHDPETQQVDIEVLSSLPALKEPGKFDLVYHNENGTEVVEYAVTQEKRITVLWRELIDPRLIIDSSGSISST

The target in assay [1] is T1, HSF4 (mouse (endogenous in NIH-3T3)) (UniProt Q9R0L1).
T1 sequence: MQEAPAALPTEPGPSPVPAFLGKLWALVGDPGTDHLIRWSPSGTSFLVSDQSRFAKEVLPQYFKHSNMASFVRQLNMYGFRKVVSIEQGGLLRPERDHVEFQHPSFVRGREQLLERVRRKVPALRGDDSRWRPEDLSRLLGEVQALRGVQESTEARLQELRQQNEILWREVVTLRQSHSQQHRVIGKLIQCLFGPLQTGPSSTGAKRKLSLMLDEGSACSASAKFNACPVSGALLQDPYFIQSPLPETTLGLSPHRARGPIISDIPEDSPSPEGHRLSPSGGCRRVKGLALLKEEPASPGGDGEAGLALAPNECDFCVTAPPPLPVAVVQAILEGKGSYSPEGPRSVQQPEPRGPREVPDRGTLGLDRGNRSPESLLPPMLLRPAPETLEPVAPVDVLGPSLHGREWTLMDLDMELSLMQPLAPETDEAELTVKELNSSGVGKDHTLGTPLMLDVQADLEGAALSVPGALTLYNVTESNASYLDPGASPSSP
Put plainly: proximity ligation; Duolink in situ PLA in fixed, permeabilised NIH-3T3 cells before and after UV induction; signal when the two proteins are ≤40 nm apart.

Assay [2] concerns the target T1, HSF4 (mouse (endogenous in NIH-3T3)). The assay can be described thus: co-IP; NIH-3T3 cells after UV induction; protein A/G beads with specific antibody or IgG, incubated with cell lysate overnight; Western blot. In general terms: A western blot detects proteins with antibodies after separation by electrophoresis.
For assay [3] the target is unchanged. The assay can be described thus: co-IP; NIH-3T3 cells under normal conditions (without UV); protein A/G beads with specific antibody or IgG, incubated with cell lysate overnight; Western blot.

These are yes or no findings as the source states them, for the method shown. In cells and extracts the contact can be indirect. Some results given as binding are weak or reduced against the parent protein; the word gives no strength.

Consider “COIL (coilin) (from UniProt Q5SU73 1-570)”, for which the results for the binding entry in assay [1], in assay [2] and in assay [3] were “binds”, “binds” and “no binding (condition: cells without UV irradiation)”, respectively.
